The target of this assay is STAT5A-CFAST fusion protein (human) (UniProt P42229). Kind of assay: split reporter.

Protein sequences, listed by entry. Tags and fused reporters are not part of them.
UniProt P42229: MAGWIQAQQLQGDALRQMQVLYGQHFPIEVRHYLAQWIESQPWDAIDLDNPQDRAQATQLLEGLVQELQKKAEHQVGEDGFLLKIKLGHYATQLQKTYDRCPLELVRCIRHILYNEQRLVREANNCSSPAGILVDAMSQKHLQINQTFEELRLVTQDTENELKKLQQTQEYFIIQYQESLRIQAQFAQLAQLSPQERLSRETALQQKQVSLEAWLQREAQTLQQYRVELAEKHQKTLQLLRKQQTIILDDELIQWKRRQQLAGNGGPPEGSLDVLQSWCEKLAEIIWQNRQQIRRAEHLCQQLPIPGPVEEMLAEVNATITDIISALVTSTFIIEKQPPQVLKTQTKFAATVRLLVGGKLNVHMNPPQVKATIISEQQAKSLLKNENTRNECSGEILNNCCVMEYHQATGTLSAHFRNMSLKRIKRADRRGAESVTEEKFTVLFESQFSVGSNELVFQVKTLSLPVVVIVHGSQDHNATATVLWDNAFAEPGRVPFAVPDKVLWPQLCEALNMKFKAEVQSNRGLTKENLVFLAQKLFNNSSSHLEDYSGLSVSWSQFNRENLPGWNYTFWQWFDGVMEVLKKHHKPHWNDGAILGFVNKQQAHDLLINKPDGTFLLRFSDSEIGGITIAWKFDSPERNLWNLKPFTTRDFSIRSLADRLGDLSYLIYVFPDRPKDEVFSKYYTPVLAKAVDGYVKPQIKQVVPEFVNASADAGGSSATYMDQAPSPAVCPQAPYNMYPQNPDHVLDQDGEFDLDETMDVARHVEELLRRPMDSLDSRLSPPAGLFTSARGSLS
UniProt O14746: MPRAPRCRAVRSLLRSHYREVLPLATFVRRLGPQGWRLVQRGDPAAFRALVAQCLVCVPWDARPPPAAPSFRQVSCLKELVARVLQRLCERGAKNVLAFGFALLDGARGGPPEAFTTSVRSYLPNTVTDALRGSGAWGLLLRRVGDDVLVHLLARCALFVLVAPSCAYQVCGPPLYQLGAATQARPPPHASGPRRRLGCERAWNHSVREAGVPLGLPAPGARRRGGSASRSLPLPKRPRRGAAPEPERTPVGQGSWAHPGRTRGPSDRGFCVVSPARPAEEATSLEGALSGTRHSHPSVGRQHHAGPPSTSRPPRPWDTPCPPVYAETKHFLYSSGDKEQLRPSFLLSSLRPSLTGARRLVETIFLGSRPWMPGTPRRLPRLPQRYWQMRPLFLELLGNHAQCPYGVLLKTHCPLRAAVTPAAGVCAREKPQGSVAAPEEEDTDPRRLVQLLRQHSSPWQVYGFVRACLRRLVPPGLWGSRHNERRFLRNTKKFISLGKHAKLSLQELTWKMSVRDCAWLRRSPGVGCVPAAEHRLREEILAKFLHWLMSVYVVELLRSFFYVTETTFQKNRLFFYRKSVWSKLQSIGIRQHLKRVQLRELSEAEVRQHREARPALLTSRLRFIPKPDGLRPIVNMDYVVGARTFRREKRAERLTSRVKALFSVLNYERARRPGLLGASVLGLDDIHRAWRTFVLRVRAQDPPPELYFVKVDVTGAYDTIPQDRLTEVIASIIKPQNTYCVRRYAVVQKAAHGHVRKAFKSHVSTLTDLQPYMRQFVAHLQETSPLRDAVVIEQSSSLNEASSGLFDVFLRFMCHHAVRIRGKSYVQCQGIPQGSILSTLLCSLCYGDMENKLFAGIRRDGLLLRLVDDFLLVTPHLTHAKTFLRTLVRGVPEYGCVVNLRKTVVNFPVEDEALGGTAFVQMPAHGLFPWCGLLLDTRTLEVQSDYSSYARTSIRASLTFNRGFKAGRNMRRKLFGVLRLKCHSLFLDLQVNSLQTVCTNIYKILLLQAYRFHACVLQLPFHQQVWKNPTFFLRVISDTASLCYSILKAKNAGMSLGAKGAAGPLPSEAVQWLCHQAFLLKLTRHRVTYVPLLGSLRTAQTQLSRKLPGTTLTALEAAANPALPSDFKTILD

Results are given in words; binding and its absence hold for the method and conditions named. Binding seen in cells or lysates may run through a third protein. Some results given as binding are weak or reduced against the parent protein; the word gives no strength.

As for “TERT-NFAST fusion protein (from UniProt O14746 1-1132)”, the binding result was “binds”.

The values above are taken from publication doi:10.1101/2022.08.23.504425.
